Data published in the supplement of paper PMC12889115.
This is one part of the list. Values are raw readings; no control value is given beside them.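 First-pass screen: polymyxin B was added at a level that permeabilizes the Salmonella outer membrane while sparing the inner membrane. DMSO wells, with and without polymyxin B, defined maximum growth. Because plates differed from one another, each plate's data were ranked separately and the compounds with the lowest OD600 were carried forward as hits.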

Test system: Salmonella enterica serovar Typhimurium SL1344
Assay: bacterial growth OD600 after 18 h with compound and polymyxin B; higher = more bacterial growth (less inhibition)
Details: 50 µM, Mueller-Hinton broth

| Compound | bacterial growth OD600 (polymyxin B 0.75 µg/mL) | bacterial growth OD600 (polymyxin B 1 µg/mL) |
| --- | --- | --- |
| OC(Cc1ccccc1)c1ccc2c(c1)CN(Cc1ccc(OC(F)F)cc1)CCO2 (stereo unspecified) | 0 | – |
| COc1ccccc1CCNC(=O)Cc1ccc(N2CCC(NCCc3ccco3)CC2)cc1 | 0.821 | – |
| CC(C)CCC(=O)N1CCOc2ccc(C(C)(O)CN(C)C)cc2C1 (stereo unspecified) | 0.915 | – |
| CCCCc1nc2cc(C(=O)N3CCC(Oc4ccccc4F)CC3)ccc2o1 | 0.225 | – |
| CCN1CCN(C2(C(=O)N(C)Cc3cc(C)[nH]n3)Cc3ccccc3C2)CC1 | 0.843 | – |
| COCCNC(=O)c1ccc(OC)cc1OC1CCN(C2CCCC(C)(C)C2)CC1 (stereo unspecified) | – | 1.12 |
| CN(Cc1nc2ccccc2o1)C(=O)c1ccc2nc(C3CCCCC3)oc2c1 | – | 0.852 |
| COc1ccc(CCCNC(=O)c2ccc(N3CCC(N(C)C)C3)nc2)cc1 (stereo unspecified) | – | 1.08 |
| CC[C@H](C)[C@H](NC(=O)c1cccc(OC2CCN(S(C)(=O)=O)CC2)c1)C(=O)OC | – | 1.05 |
| CN(CCN1CCOCC1)C(=O)CC(c1ccccc1)c1ccccc1F (stereo unspecified) | – | 1.08 |
| COc1cccc(CCNc2ccc(-c3nc(C4CC4)no3)cn2)c1OC | 0.488 | – |
| O=C(CCOc1ccccc1)N1CCCC(Nc2ccccc2)C1 (stereo unspecified) | – | 0.736 |
| CC1(C)Cc2nc(N3CCOCC3)ncc2C(NC(=O)CC2=CCCCC2)C1 (stereo unspecified) | 0.649 | – |
| O=C(NCC1Cc2cc(F)cc(-c3ccccn3)c2O1)c1ccc(F)cc1 (stereo unspecified) | 0.748 | – |
| COc1cccc(N2C(=O)CN(C(=O)c3ccc4nccnc4c3)CC2C)c1 (stereo unspecified) | 0.836 | – |
| O=C([C@H]1C[C@@H]2C=C[C@H]1C2)N1CCC(C2(c3ccccn3)NC(=O)N(CCc3cccs3)C2=O)CC1 (stereo partly specified) | 0.942 | – |

Two of these compounds, reformatted:
Compound,bacterial growth OD600 (polymyxin B 0.75 µg/mL),bacterial growth OD600 (polymyxin B 1 µg/mL)
COc1ccc(CCCNC(=O)c2ccc(N3CCC(N(C)C)C3)nc2)cc1 (stereo unspecified),–,1.08
CC[C@H](C)[C@H](NC(=O)c1cccc(OC2CCN(S(C)(=O)=O)CC2)c1)C(=O)OC,–,1.05

Remaining list, next part.

| Compound | bacterial growth OD600 (polymyxin B 0.75 µg/mL) | bacterial growth OD600 (polymyxin B 1 µg/mL) |
| --- | --- | --- |
| Cc1ccc(OCC(=O)N2CCC(CCC(=O)Nc3ccccc3)CC2)cc1 | – | 0.786 |
| C=Cc1ccc(C(=O)N2CCCC(Nc3ccc(OC)cc3)C2)cc1 (stereo unspecified) | – | 0.989 |
| O=C1CCC(CCC(=O)N2CCC[C@H]2CO)(Cc2ccc3ccccc3c2)N1 (stereo partly specified) | 0.847 | – |
| CN(CCc1ccccn1)c1ncccc1CNC(=O)C1CCCCCC1 | 0.647 | – |
| O=C(NCC1CCS(=O)(=O)C1)C1(N2CCCCC2)Cc2ccccc2C1 (stereo unspecified) | 0.704 | – |
| CCN1CCC(C(=O)N2CCCC(CCc3ccc(F)c(F)c3)C2)CC1 (stereo unspecified) | 0.838 | – |
| CCOC(=O)C1(CCOc2ccccc2)CCCN(C(=O)CCc2cnn(C)c2)C1 (stereo unspecified) | – | 0.821 |
| COCC1CCN(C(=O)c2cc(Cn3c(C)nc4ccccc43)[nH]n2)C1 (stereo unspecified) | – | 0.917 |
| COc1cc(CC2(CCC(=O)NC(C)c3cccc4ccccc34)CCC(=O)N2)ccc1F (stereo unspecified) | 0.796 | – |
| COC(=O)[C@@H]1C[C@H](C(=O)NCc2cccc(OC)c2)[C@H](c2ccccc2F)N1C | – | 0.98 |
| O=C(Nc1ccc(-c2cccc(F)c2)cc1)C1CCCN(CC2CC2)C1 (stereo unspecified) | 0.008 | – |
| COc1cccc(-n2cc(CN(C)Cc3nc(-c4cccs4)no3)cn2)c1 | – | 0.851 |
| COCCNC(=O)c1ccc(OC)cc1OC1CCN(Cc2cccc(OC)c2)CC1 | – | 1.25 |
| COC(=O)c1ccc(CN2CCC(n3nccc3NC(=O)CC(C)C)CC2)cc1 | – | 1 |
| CCN1C(=O)CC(CC(=O)N2CCN(Cc3ccccn3)CC2)(c2cccc(C(F)(F)F)c2)C1=O (stereo unspecified) | 0.831 | – |
